Laboratory results as given in publication PMC5344794.
Results are given in words; binding and its absence hold for the method and conditions named. In cells and extracts the contact can be indirect. Some entries that bind do so weakly or less than the wild type.

Chains of the proteins cited; added tags and fusions are not shown. Lines headed by an entry give the natural chain unless they say otherwise; changes in a name come on top. A line that says so, or that is headed by a name, gives the form on record, which may keep a tag or linker.
UniProt O14744: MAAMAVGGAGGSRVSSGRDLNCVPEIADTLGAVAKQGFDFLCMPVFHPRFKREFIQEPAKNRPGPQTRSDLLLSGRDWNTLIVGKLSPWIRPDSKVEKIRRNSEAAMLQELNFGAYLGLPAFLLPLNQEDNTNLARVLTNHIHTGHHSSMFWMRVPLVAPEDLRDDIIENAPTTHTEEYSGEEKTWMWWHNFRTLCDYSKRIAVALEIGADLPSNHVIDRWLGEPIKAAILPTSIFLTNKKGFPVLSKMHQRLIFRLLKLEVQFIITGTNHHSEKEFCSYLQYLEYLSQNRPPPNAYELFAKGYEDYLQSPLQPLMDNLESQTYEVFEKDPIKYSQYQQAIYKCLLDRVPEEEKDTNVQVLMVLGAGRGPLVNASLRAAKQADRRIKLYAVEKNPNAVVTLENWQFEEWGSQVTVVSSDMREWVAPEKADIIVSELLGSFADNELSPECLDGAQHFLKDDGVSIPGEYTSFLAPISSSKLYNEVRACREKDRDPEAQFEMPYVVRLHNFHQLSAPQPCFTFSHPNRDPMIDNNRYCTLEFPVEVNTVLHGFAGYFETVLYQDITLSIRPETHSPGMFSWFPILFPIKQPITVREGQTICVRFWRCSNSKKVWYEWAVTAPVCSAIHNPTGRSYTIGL
myc-tagged catalytically inactive PRMT5 (myc-PRMT5 MD) (O14744, form named): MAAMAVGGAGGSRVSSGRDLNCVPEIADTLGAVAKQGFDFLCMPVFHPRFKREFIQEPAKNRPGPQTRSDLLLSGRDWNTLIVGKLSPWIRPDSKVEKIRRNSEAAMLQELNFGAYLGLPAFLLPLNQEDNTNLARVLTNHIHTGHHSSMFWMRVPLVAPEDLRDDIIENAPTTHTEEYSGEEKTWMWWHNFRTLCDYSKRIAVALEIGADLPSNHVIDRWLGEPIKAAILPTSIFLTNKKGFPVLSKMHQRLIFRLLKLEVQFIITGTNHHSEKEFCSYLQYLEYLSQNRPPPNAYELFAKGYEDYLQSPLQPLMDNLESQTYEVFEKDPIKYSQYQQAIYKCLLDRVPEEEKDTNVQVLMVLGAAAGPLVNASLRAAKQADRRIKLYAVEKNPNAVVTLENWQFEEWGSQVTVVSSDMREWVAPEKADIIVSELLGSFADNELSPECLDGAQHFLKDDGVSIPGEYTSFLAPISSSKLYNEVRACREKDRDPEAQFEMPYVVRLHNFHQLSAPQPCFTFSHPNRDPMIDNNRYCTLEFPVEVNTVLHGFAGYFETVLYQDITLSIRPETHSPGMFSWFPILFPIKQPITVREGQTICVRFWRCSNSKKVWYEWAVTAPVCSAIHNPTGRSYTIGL
UniProt Q9Y265: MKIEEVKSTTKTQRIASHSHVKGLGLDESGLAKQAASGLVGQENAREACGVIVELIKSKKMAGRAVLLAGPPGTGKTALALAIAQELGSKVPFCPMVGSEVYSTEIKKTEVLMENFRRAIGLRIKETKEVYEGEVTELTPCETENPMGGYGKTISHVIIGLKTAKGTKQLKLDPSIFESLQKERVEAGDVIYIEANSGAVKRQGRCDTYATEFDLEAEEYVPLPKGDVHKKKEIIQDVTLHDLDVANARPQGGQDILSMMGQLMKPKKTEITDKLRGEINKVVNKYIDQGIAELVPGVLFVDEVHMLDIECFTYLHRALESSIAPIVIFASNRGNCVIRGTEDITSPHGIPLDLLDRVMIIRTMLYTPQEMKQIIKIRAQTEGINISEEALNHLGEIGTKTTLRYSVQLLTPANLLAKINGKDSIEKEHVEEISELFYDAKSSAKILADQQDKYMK
UniProt Q9Y230: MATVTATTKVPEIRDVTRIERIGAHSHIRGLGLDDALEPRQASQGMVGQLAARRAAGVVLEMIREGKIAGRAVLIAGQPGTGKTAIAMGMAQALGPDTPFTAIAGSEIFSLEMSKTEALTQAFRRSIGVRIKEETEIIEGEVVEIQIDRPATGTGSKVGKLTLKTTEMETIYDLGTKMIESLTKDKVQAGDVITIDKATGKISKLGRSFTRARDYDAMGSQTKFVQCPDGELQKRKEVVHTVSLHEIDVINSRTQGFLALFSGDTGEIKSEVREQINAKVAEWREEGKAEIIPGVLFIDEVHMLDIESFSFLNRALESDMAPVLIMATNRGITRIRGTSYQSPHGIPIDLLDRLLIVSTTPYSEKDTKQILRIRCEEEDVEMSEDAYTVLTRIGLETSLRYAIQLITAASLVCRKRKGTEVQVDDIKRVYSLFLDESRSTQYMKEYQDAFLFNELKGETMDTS

Columns and labels:
[1] = target: myc-tagged catalytically inactive PRMT5 (myc-PRMT5 MD) (UniProt O14744); test: co-IP; transfected 293T cells, untreated or damaged with 10 Gy IR; myc-PRMT5 MD immunoprecipitated, associated RUVBL1 detected by FLAG immunoblotting (Figure 3H)
[2] = target: RUVBL1 (endogenous, HeLa) (human (endogenous in HeLa)) (UniProt Q9Y265); test: co-IP; endogenous RUVBL1 immunoprecipitated from HeLa lysate, endogenous PRMT5 detected (Figure 3C)
[3] = target: FLAG-tagged RUVBL1 (wild type) (human) (UniProt Q9Y265); test: co-IP; ectopic myc-PRMT5 MD with FLAG-RUVBL1 or FLAG-RUVBL2 (Figure 3B); 0.1% NP40 lysis buffer, 150 mM NaCl; cell line not stated
[4] = target: FLAG-tagged RUVBL2 (human) (UniProt Q9Y230); test: as above

“FLAG-tagged RUVBL1 (wild type) (from UniProt Q9Y265 1-456)” was tested, and the binding [1] was “binds”.

For “PRMT5 (endogenous, HeLa) (from UniProt O14744 1-637) (enzyme)”, the binding [2] was “binds”.

In the case of “myc-tagged catalytically inactive PRMT5 (myc-PRMT5 MD) (from UniProt O14744 1-637) (enzyme)”, the binding [3] is reported as “binds” and the binding [4] is reported as “binds”.
